# Cleaved PARP after 72 h of treatment

From a melanoma drug combination screen (doi:10.1371/journal.pone.0140310); values rounded.

Every entry is a combination with IMD-0354 at 0.08 µM: O=C(Nc1cc(C(F)(F)F)cc(C(F)(F)F)c1)c1cc(Cl)ccc1O

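Human melanoma cells were exposed to a pair of drugs for 72 h in 1,536-well plates and read by automated microscopy after fixing and staining. Each value is the cleaved-PARP-positive fraction of nuclei relative to DMSO-treated wells, in %, so that 100 equals the control and higher values mean more apoptosis. Every drug was used at one fixed concentration, the higher of two screened. No replicate spread is given; individual values may be noisy. The marker varies much from line to line, for technical or biological reasons.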
An unselected part of the screen is shown.
An entry leaves out what has no value listed here.

CN(NC(=O)CC(=O)NN(C)C(=S)c1ccccc1)C(=S)c1ccccc1 at 0.03 µM gave RPMI-7951: 75.7; LB2518-MEL: 189; COLO 792: 128.
CCN(CC)CCCCNc1ncc2cc(-c3cc(OC)cc(OC)c3)c(NC(=O)NC(C)(C)C)nc2n1 at 0.5 µM gave RPMI-7951: 28.6; LB2518-MEL: 94.1; COLO 792: 94.9.
O=C(/C=C/c1cccnc1)NCCCCC1CCN(C(=O)c2ccccc2)CC1 at 0.05 µM gave RPMI-7951: 68.5; LB2518-MEL: 677; COLO 792: 844.
CC(=O)O[C@@]12CO[C@@H]1C[C@H](O)[C@@]1(C)C(=O)[C@H](O)C3=C(C)[C@@H](OC(=O)[C@H](O)[C@@H](NC(=O)OC(C)(C)C)c4ccccc4)C[C@@](O)([C@@H](OC(=O)c4ccccc4)[C@H]21)C3(C)C at 0.0005 µM gave RPMI-7951: 164; COLO 792: 1130.
C/C(O)=C(\C#N)C(=O)Nc1cc(Br)ccc1Br at 10 µM gave RPMI-7951: 184; LB2518-MEL: 61.4; COLO 792: 69.0.
Cn1cnc2c(F)c(Nc3ccc(Br)cc3Cl)c(C(=O)NOCCO)cc21 at 0.075 µM gave RPMI-7951: 23.2; LB2518-MEL: 240; COLO 792: 194.
C[As](C)SC[C@H](NC(=O)CC[C@H](N)C(=O)O)C(=O)NCC(=O)O at 2 µM gave RPMI-7951: 81.6; LB2518-MEL: 183; COLO 792: 145.
CC1(C)CCC(c2ccc(Cl)cc2)=C(CN2CCN(c3ccc(C(=O)NS(=O)(=O)c4ccc(N[C@H](CCN5CCOCC5)CSc5ccccc5)c(S(=O)(=O)C(F)(F)F)c4)cc3)CC2)C1 at 2 µM gave RPMI-7951: 202; LB2518-MEL: 257; COLO 792: 1310.
C[C@@H](Oc1cc(-c2cnn(C3CCNCC3)c2)cnc1N)c1c(Cl)ccc(F)c1Cl at 1 µM gave RPMI-7951: 37.2; LB2518-MEL: 61.2; COLO 792: 62.2.
C[C@]1(O)C[C@@H](c2nc(-c3ccc4ccc(-c5ccccc5)nc4c3)c3c(N)nccn32)C1 at 2 µM gave RPMI-7951: 78.6; LB2518-MEL: 161; COLO 792: 57.7.
N.N.[Cl][Pt][Cl] at 8 µM gave RPMI-7951: 62.6; LB2518-MEL: 120; COLO 792: 201.
NC(=O)c1ccc(N(C(N)=O)c2c(F)cccc2F)nc1-c1ccc(F)cc1F at 2 µM gave RPMI-7951: 95.7; LB2518-MEL: 29.4; COLO 792: 81.6.
COc1cc(N2CCC(N3CCN(C)CC3)CC2)ccc1Nc1ncc(Cl)c(Nc2ccccc2S(=O)(=O)C(C)C)n1 at 0.4 µM gave RPMI-7951: 178; LB2518-MEL: 127; COLO 792: 37.8.
Cc1nc(Nc2ncc(C(=O)Nc3c(C)cccc3Cl)s2)cc(N2CCN(CCO)CC2)n1 at 0.02 µM gave RPMI-7951: 456; LB2518-MEL: 57.4; COLO 792: 106.
Cc1ccc(NC(=O)c2cccc(N(C)C)c2)cc1NC(=O)c1ccc(O)cc1 at 10 µM gave RPMI-7951: 50.9; LB2518-MEL: 120; COLO 792: 152.
O=C(O)C(=O)Nc1sc2c(c1C(=O)O)CCNC2 at 8.33 µM gave RPMI-7951: 23.9; LB2518-MEL: 115; COLO 792: 80.4.
CC(C)C[C@H](NC(=O)[C@H](Cc1ccccc1)NC(=O)c1cnccn1)B(O)O at 0.005 µM gave RPMI-7951: 1130; LB2518-MEL: 3490; COLO 792: 420.
NCC(=O)Nc1ccc(-n2nc(C(F)(F)F)cc2-c2ccc3c(ccc4ccccc43)c2)cc1 at 5 µM gave RPMI-7951: 93.3; LB2518-MEL: 500; COLO 792: 227.
CNC(=O)c1cc(Oc2ccc(NC(=O)Nc3ccc(Cl)c(C(F)(F)F)c3)cc2)ccn1 at 2 µM gave RPMI-7951: 80.9; LB2518-MEL: 35.6; COLO 792: 94.2.
COc1cc(Nc2ncc(F)c(Nc3ccc4c(n3)NC(=O)C(C)(C)O4)n2)cc(OC)c1OC at 2 µM gave RPMI-7951: 503; LB2518-MEL: 118; COLO 792: 591.
C#Cc1cccc(Nc2ncnc3cc(OCCOC)c(OCCOC)cc23)c1 at 4 µM gave RPMI-7951: 115; LB2518-MEL: 117; COLO 792: 177.
CCCS(=O)(=O)Nc1ccc(F)c(C(=O)c2c[nH]c3ncc(Cl)cc23)c1F at 0.4 µM gave RPMI-7951: 97.6; LB2518-MEL: 77.2; COLO 792: 85.8.
CCN(CC)CCNC(=O)c1c(C)[nH]c(/C=C2\C(=O)Nc3ccc(F)cc32)c1C at 2 µM gave RPMI-7951: 106; LB2518-MEL: 97.9; COLO 792: 194.
CN1CCN(c2ccc3nc(-c4c(N)c5c(F)cccc5[nH]c4=O)[nH]c3c2)CC1 at 0.5 µM gave RPMI-7951: 99.5; LB2518-MEL: 69.8; COLO 792: 114.
C=CCNC1=C2C[C@@H](C)C[C@H](OC)[C@H](O)[C@@H](C)/C=C(\C)[C@H](OC(N)=O)[C@@H](OC)/C=C\C=C(/C)C(=O)NC(=CC1=O)C2=O at 0.01 µM gave RPMI-7951: 404; LB2518-MEL: 140; COLO 792: 211.
Clc1ccc(Nc2nnc(Cc3ccncc3)c3ccccc23)cc1 at 10 µM gave RPMI-7951: 67.1; LB2518-MEL: 143; COLO 792: 267.
CC(C)CCN1c2nc(Nc3cc(F)c(O)c(F)c3)ncc2N(C)C(=O)C1C (stereo not given) at 1 µM gave RPMI-7951: 100; LB2518-MEL: 144; COLO 792: 68.3.
Cn1cc(/C=C2\C(=O)Nc3cccnc32)c2ccccc21 at 2 µM gave RPMI-7951: 82.1; COLO 792: 95.1.
COc1ccc2c(c1)CCC1C2CCC2(C)C(NCCCCCCN3C(=O)C=CC3=O)CCC12 (stereo not given) at 2 µM gave RPMI-7951: 462; COLO 792: 69.2.
O=C(O)c1ccc2c(c1)nc(Nc1cccc(Cl)c1)c1ccncc12 at 2 µM gave RPMI-7951: 77.2; LB2518-MEL: 43.8; COLO 792: 61.6.
Nc1ccn([C@@H]2O[C@H](CO)[C@@H](O)C2(F)F)c(=O)n1 at 0.002 µM gave RPMI-7951: 237; COLO 792: 147.
O=c1[nH]nc(Sc2ncc([N+](=O)[O-])s2)n1-c1ccc2c(c1)OCCO2 at 1 µM gave RPMI-7951: 63.1; LB2518-MEL: 140; COLO 792: 83.3.
CS(=O)(=O)c1ccc(C(=O)Nc2ccc(Cl)c(-c3ccccn3)c2)c(Cl)c1 at 5 µM gave RPMI-7951: 66.5; LB2518-MEL: 60.1; COLO 792: 175.
Cc1ccc(Nc2nccc(N(C)c3ccc4c(C)n(C)nc4c3)n2)cc1S(N)(=O)=O at 2 µM gave RPMI-7951: 81.9; LB2518-MEL: 108; COLO 792: 43.4.
c1cc(-c2cnn3cc(-c4ccc(OCCN5CCCCC5)cc4)cnc23)ccn1 at 2 µM gave RPMI-7951: 189; LB2518-MEL: 54.8; COLO 792: 69.5.
CN(c1ncccc1CNc1nc(Nc2ccc3c(c2)CC(=O)N3)ncc1C(F)(F)F)S(C)(=O)=O at 0.4 µM gave RPMI-7951: 187; LB2518-MEL: 86.4; COLO 792: 110.